From publication PMC4764983
No constants are given. Whether binding was seen depends on the method and setting. For some of these results: Binding seen in cells or lysates may run through a third protein. Some results given as binding are weak or reduced against the parent protein; the word gives no strength.

Amino acid sequences for entries named in this document (tags omitted).
UniProt P27782: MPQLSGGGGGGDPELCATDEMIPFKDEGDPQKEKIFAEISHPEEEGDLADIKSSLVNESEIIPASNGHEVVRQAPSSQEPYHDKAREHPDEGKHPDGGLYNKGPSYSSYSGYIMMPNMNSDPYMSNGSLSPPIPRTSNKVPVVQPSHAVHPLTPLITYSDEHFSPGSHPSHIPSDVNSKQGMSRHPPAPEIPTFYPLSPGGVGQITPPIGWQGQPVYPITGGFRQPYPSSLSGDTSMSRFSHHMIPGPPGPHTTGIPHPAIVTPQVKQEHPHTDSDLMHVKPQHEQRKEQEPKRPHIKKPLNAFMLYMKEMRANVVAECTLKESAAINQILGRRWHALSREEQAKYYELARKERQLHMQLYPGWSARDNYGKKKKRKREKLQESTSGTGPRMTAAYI
UniProt O09106: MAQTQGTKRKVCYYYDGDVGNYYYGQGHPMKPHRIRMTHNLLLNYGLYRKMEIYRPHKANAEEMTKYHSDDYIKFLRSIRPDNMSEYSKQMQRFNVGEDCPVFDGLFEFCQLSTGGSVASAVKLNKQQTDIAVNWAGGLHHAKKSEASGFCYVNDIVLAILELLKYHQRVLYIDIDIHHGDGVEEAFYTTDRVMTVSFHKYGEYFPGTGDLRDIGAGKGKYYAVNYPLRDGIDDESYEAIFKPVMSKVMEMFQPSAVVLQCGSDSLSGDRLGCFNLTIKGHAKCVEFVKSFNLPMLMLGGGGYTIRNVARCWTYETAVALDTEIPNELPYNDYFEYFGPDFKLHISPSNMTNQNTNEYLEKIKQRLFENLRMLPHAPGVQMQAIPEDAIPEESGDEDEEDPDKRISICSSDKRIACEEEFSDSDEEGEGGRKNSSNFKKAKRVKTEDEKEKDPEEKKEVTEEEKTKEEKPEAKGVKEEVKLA
UniProt Q02248: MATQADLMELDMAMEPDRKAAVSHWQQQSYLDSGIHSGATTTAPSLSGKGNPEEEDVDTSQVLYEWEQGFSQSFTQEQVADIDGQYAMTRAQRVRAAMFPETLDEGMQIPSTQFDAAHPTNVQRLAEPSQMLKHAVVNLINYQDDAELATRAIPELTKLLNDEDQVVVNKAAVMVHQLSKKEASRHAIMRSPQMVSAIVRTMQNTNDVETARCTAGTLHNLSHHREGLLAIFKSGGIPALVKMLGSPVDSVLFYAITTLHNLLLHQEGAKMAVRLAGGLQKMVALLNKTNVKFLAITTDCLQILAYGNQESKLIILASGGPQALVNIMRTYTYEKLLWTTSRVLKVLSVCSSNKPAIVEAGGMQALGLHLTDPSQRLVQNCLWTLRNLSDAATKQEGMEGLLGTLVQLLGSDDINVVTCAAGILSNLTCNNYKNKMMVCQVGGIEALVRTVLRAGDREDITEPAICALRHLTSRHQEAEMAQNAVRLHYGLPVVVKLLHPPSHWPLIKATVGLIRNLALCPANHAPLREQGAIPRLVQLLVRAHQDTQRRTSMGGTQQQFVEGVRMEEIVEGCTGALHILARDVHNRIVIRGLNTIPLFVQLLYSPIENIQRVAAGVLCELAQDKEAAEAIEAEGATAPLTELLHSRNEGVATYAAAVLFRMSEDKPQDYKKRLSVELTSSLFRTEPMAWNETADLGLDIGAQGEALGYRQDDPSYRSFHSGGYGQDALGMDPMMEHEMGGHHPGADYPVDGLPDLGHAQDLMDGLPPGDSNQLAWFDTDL

Key:
[1] = target: lymphoid enhancer-binding factor 1 (LEF-1), endogenous mouse (mouse (endogenous in C3H10T1/2 and STO)) (UniProt P27782); experiment: proximity ligation; Duolink II fluorescence PLA on C3H10T1/2^pLIVc and C3H10T1/2^SS18-SSX1-V5 cells fixed in 4% paraformaldehyde and permeabilised with 0.3% triton; pairs of primary antibodies from two species; foci counted in DAPI-stained nuclei; in some panels cells treated beforehand with recombinant Wnt3a, 250 nM TSA for 16 hrs, 5 uM DAPI for 30 min, or LEF-1 siRNA
[2] = target: histone deacetylase 1 (HDAC1), endogenous mouse (mouse (endogenous in C3H10T1/2 and STO)) (UniProt O09106); experiment: native gel or EMSA; cleared lysates of C3H10T1/2^pLIVc and C3H10T1/2^SS18-SSX1-V5 cells on a 5% native gel, blotted and probed with anti-TCF4, anti-HDAC, anti-V5 and anti-β-catenin; co-migration
[3] = target: histone deacetylase 1 (HDAC1), endogenous mouse (mouse (endogenous in C3H10T1/2 and STO)) (UniProt O09106); experiment: proximity ligation; Duolink II fluorescence PLA on C3H10T1/2^pLIVc and C3H10T1/2^SS18-SSX1-V5 cells fixed in 4% paraformaldehyde and permeabilised with 0.3% triton; pairs of primary antibodies from two species; foci counted in DAPI-stained nuclei; in some panels cells treated beforehand with recombinant Wnt3a, 250 nM TSA for 16 hrs, 5 uM DAPI for 30 min, or LEF-1 siRNA

binding [1]	binding [2]	binding [3]	Substance
binds	–	–	histone deacetylase 1 (HDAC1), endogenous mouse (from UniProt O09106 1-482) (enzyme)
binds	binds	binds	β-catenin, endogenous mouse (from UniProt Q02248 1-781)
